Assay results reported in US20240368279A1.
Results are given in words; binding and its absence hold for the method and conditions named. Some results given as binding are weak or reduced against the parent protein; the word gives no strength.

Protein sequences, listed by entry. Tags and fused reporters are not part of them. Residues count along the entry.
UniProt Q61735, residues 19-303: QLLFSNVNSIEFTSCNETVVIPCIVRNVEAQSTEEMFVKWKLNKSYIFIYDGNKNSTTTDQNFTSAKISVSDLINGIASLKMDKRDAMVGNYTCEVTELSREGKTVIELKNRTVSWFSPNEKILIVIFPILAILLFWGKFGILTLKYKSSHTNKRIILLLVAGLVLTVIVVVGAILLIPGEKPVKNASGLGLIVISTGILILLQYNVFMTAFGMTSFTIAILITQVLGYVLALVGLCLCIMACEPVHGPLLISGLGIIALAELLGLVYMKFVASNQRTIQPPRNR

Molecular target: murine CD47 on B16 melanoma cells (mouse) (UniProt Q61735)
Experiment: flow cytometry on B16 melanoma cells

binding: binds
B1: Hu004-73 antibody (full-length human IgG1, kappa) (antibody, V domains shown)
VH: EVQLVESGGGLVQPGGSLRLSCAASGFTFSGYGMSWVRQAPGKGLEWVATITSGGTYTYYPDSVKGRFTISRDNAKNSLYLQMNSLRAEDTAVYYCARSLAGNAMDYWGQGTLVTVSS
VL: DIQMTQSPSSLSASVGDRVTITCRAGQPLNNYLNWYQQKPGKPPRLLIYAASTLQSGVPSRFSGSGSGTDFTLTISGLQSEDFASYFCQHRVTFGPGTKVDVR
